Reference: PubChem BioAssay AID1259254 (NCATS, 2017)

Assay: 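Genome-wide screen for genes that prevent DNA re-replication in cancer cells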 (primary screen)
System: human HCT116 colorectal cancer cells
Knock-down reagent: single siRNA against human genes
Timing: 3 days
Measured: 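Imaged Hoechst DNA stain sorts each cell into a cycle phase by DNA amount; per plate, G2 fraction set to 0% for non-targeting and 100% for GMNN siRNA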
Reading the numbers: G2 robust z-score and G2 cells, % of GMNN control: higher = more G2 cells, more excess DNA replication
Rule for the call: 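Active siRNAs have a G2 robust z of 5 or more median absolute deviations over the median, which in these data means about 38% or higher of GMNN control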
The whole screen tested about 59,000 reagents; below is a random part of them. Over the whole deposit, about 1,550 (2.6%) got an active call. 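G2 share is only a proxy for re-replication; each gene was hit by three separate siRNAs, and active genes were retested.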 Entries without a mark were called inactive. The numbers tell different reagents against one gene apart. Further read-outs or replicates are left out here. The record does not give: the amount of reagent.

target gene	reagent	G2 robust z-score	G2 cells, % of GMNN control
CPLX1 (complexin 1)	1	3.55	27.9
CPLX1 (complexin 1)	2	-0.0151	2.86
CPLX1 (complexin 1)	3	-0.019	2.83
MOCS1 (molybdenum cofactor synthesis 1)	1	5.32 (active)	40.4
MOCS1 (molybdenum cofactor synthesis 1)	2	-0.707	-2.01
MOCS1 (molybdenum cofactor synthesis 1)	3	-0.0538	2.59
CDKL2 (cyclin dependent kinase like 2)	1	2.84	22.9
CDKL2 (cyclin dependent kinase like 2)	2	-0.986	-3.97
CDKL2 (cyclin dependent kinase like 2)	3	-0.74	-2.24
UNC13A (unc-13 homolog A)	1	-0.201	1.55
UNC13A (unc-13 homolog A)	2	-1.13	-4.95
UNC13A (unc-13 homolog A)	3	1.88	16.2
BBS5 (Bardet-Biedl syndrome 5)	1	-0.269	1.07
BBS5 (Bardet-Biedl syndrome 5)	2	-0.0767	2.43
BBS5 (Bardet-Biedl syndrome 5)	3	-0.0481	2.63
NID2 (nidogen 2)	1	-0.00876	2.91
NID2 (nidogen 2)	2	0.269	4.86
NID2 (nidogen 2)	3	0.187	4.28
VPS52 (VPS52 subunit of GARP complex)	1	1.5	13.5
VPS52 (VPS52 subunit of GARP complex)	2	0.245	4.69
VPS52 (VPS52 subunit of GARP complex)	3	-0.466	-0.308
PRDM6 (PR/SET domain 6)	1	-0.654	-1.64
PRDM6 (PR/SET domain 6)	2	-0.0682	2.49
PRDM6 (PR/SET domain 6)	3	2.2	18.4
RING1 (ring finger protein 1)	1	-0.89	-3.29
RING1 (ring finger protein 1)	2	-0.678	-1.8
RING1 (ring finger protein 1)	3	0.991	9.94
PHOSPHO2 (phosphatase, orphan 2)	1	-0.512	-0.638
PHOSPHO2 (phosphatase, orphan 2)	2	0.0828	3.55
PHOSPHO2 (phosphatase, orphan 2)	3	0.223	4.53
RHEBL1 (RHEB like 1)	1	-0.696	-1.93
RHEBL1 (RHEB like 1)	2	0.672	7.7
RHEBL1 (RHEB like 1)	3	-0.0859	2.36
DSC1 (desmocollin 1)	1	-1.02	-4.23
DSC1 (desmocollin 1)	2	-0.275	1.03
DSC1 (desmocollin 1)	3	0.64	7.47

11 of these entries in another layout.
{"target gene":"UNC13A (unc-13 homolog A)","reagent":3,"G2 robust z-score":1.88,"G2 cells, % of GMNN control":16.2}
{"target gene":"BBS5 (Bardet-Biedl syndrome 5)","reagent":1,"G2 robust z-score":-0.269,"G2 cells, % of GMNN control":1.07}
{"target gene":"BBS5 (Bardet-Biedl syndrome 5)","reagent":2,"G2 robust z-score":-0.0767,"G2 cells, % of GMNN control":2.43}
{"target gene":"BBS5 (Bardet-Biedl syndrome 5)","reagent":3,"G2 robust z-score":-0.0481,"G2 cells, % of GMNN control":2.63}
{"target gene":"NID2 (nidogen 2)","reagent":1,"G2 robust z-score":-0.00876,"G2 cells, % of GMNN control":2.91}
{"target gene":"NID2 (nidogen 2)","reagent":2,"G2 robust z-score":0.269,"G2 cells, % of GMNN control":4.86}
{"target gene":"NID2 (nidogen 2)","reagent":3,"G2 robust z-score":0.187,"G2 cells, % of GMNN control":4.28}
{"target gene":"VPS52 (VPS52 subunit of GARP complex)","reagent":1,"G2 robust z-score":1.5,"G2 cells, % of GMNN control":13.5}
{"target gene":"VPS52 (VPS52 subunit of GARP complex)","reagent":2,"G2 robust z-score":0.245,"G2 cells, % of GMNN control":4.69}
{"target gene":"VPS52 (VPS52 subunit of GARP complex)","reagent":3,"G2 robust z-score":-0.466,"G2 cells, % of GMNN control":-0.308}
{"target gene":"PRDM6 (PR/SET domain 6)","reagent":1,"G2 robust z-score":-0.654,"G2 cells, % of GMNN control":-1.64}

Additional reagents:
target gene	reagent	G2 robust z-score	G2 cells, % of GMNN control
RAB10 (RAB10, member RAS oncogene family)	1	0.0641	3.42
RAB10 (RAB10, member RAS oncogene family)	2	1.01	10.1
RAB10 (RAB10, member RAS oncogene family)	3	4.4	33.9
IWS1 (interacts with SUPT6H, CTD assembly factor 1)	1	0.392	5.73
IWS1 (interacts with SUPT6H, CTD assembly factor 1)	2	0.947	9.63
IWS1 (interacts with SUPT6H, CTD assembly factor 1)	3	-1.16	-5.21
OTOP3 (otopetrin 3)	1	1.96	16.8
OTOP3 (otopetrin 3)	2	1.97	16.9
OTOP3 (otopetrin 3)	3	-0.108	2.21
GPSM2 (G protein signaling modulator 2)	1	-1.03	-4.29
GPSM2 (G protein signaling modulator 2)	2	-1.35	-6.52
GPSM2 (G protein signaling modulator 2)	3	-0.0479	2.63
PPM1H (protein phosphatase, Mg2+/Mn2+ dependent 1H)	1	-0.326	0.675
PPM1H (protein phosphatase, Mg2+/Mn2+ dependent 1H)	2	1.14	11
PPM1H (protein phosphatase, Mg2+/Mn2+ dependent 1H)	3	-0.586	-1.15
INMT (indolethylamine N-methyltransferase)	1	0.256	4.77
INMT (indolethylamine N-methyltransferase)	2	1.24	11.7
INMT (indolethylamine N-methyltransferase)	3	1.47	13.3
PAPSS1 (3'-phosphoadenosine 5'-phosphosulfate synthase 1)	1	0.663	7.63
PAPSS1 (3'-phosphoadenosine 5'-phosphosulfate synthase 1)	2	-0.235	1.32
PAPSS1 (3'-phosphoadenosine 5'-phosphosulfate synthase 1)	3	-0.175	1.74
VN2R1P (vomeronasal 2 receptor 1, pseudogene)	1	2.62	21.4
VN2R1P (vomeronasal 2 receptor 1, pseudogene)	2	-1.06	-4.5
VN2R1P (vomeronasal 2 receptor 1, pseudogene)	3	2.86	23.1
HOXA2 (homeobox A2)	1	3.7	29
HOXA2 (homeobox A2)	2	0.958	9.7
HOXA2 (homeobox A2)	3	-0.606	-1.3
LOC730081 (retired record)	1	0.99	9.93
LOC730081 (retired record)	2	-0.293	0.903
LOC730081 (retired record)	3	0.449	6.13
GEMIN2 (gem nuclear organelle associated protein 2)	1	-0.224	1.39
GEMIN2 (gem nuclear organelle associated protein 2)	2	-1.18	-5.34
GEMIN2 (gem nuclear organelle associated protein 2)	3	0.401	5.79
